This is an account of results in patent US20250249092A1 (TORAY INDUSTRIES, published 2025).

No constants are given. Whether binding was seen depends on the method and setting. Some results given as binding are weak or reduced against the parent protein; the word gives no strength.

One experiment has as its target T1, CAPRIN-1 protein (UniProt Q14444).
T1 sequence (looked up): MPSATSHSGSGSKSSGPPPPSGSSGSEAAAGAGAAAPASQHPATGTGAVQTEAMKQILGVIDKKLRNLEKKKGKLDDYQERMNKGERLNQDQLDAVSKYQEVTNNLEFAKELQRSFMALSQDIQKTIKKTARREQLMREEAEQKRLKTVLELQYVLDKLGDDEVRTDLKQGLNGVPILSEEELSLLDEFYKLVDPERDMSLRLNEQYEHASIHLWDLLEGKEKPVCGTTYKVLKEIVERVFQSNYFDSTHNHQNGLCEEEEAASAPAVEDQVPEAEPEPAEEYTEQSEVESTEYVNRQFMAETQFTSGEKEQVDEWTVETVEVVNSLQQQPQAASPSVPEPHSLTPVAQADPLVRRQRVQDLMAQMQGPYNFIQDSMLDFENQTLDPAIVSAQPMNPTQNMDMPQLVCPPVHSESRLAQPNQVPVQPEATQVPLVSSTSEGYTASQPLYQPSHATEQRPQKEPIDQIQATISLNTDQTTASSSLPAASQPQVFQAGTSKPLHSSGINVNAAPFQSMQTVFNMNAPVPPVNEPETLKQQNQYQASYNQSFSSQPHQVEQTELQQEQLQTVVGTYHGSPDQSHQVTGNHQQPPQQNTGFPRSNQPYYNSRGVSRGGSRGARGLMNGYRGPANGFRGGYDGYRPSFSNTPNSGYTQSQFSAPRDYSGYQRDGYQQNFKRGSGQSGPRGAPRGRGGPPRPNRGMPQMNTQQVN
Briefly: ELISA. In general terms: An ELISA detects its analyte on a solid surface through an enzyme-linked reagent.

In experiment [1] the target is T2, CAPRIN-1 protein on the cell membrane surface of cancer cells (UniProt Q14444).
T2 sequence (looked up): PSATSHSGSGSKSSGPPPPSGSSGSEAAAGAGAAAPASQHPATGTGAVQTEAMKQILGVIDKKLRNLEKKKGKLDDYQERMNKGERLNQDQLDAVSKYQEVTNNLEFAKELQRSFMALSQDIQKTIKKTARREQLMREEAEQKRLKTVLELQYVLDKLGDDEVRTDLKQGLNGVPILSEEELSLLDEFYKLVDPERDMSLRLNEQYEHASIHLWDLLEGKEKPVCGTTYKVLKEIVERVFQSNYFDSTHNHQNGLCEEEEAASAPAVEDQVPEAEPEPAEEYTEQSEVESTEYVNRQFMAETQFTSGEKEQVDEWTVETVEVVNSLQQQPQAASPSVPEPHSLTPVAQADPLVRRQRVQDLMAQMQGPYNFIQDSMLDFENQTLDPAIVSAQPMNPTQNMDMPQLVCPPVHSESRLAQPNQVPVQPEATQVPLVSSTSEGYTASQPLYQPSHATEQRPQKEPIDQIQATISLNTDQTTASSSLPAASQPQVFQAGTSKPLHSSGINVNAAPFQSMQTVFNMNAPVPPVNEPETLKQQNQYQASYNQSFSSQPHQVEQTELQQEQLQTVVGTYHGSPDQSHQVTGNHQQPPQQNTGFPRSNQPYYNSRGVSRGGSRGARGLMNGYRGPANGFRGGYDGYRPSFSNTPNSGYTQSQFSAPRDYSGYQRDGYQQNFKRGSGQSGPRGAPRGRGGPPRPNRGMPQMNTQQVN
Briefly: flow cytometry.

B1: Conjugate 214 (antibody, V domains shown)
VH: GAELVRSGASVKMSCKASGYSFTDYNMYWVKQTPGQGLEWIGYIYPGNGGTNYNQKFKGKATLTADTSSSTAYMQISSLTSEDSAVYFCARDYDDGGYAMDYWGQGTTVTVSS
VL: DIQMTQSPASLSASVGETVTITCRASGNIHNYLTWYQQKQGKSPQLLVYNAKTLADGVPSRFSGSGSGTQYSLKINRLQPEDFGSYYCQHFWNIPWTFGGGTKLNSR
As for B1, the binding result (with CAPRIN-1 protein; in experiment [1]) was “binds” in each case.

B2: Conjugate 210 (antibody, V domains shown)
VH: AVTLDESGGGLQTPGGALSLVCKASGFTFSGYDMLWVRQAPGKGLEWVAGIGSTGGGTDYGAAVKGRATISRDNGQSTVRLQLNNLRAEDTATYYCAKVAGGCNSGYCRDSPGSIDAWGHGTEVIVS
VL: AVTQQPASVSANPGETVKITCSGGGSRNYYGWYQQKSPGSVPVTVIYYDDQRPSNIPSRFSGALSGSTSTLTITGVQADDEAVYFCGSADSNTYEGSFGAGTTLTVL
As to B2, the binding result (in the experiment with CAPRIN-1 protein; in experiment [1]) was “binds” each time.

B3: Conjugate 206 (antibody, V domains shown)
VH: EVQLVESGGGLVQPGGSLRLSCAASGFSLSSHSLGWVRQAPGKGLEWIGDIRSGGSAYYANWAKGRFTISRDNSKNTLYLQMNSLRAEDTAVYYCTRTNGPSDLTNRLDLWGQGTLVTVSS
VL: EQVLTQSPSSLSASVGDRVTINCQASQSLYNNENLAWFQQKPGKVPKRLIYGASTLASGVSSRFSGSGSGTEFTLTISNLQPEDFAIYYCLGEFSCGSADCFAFGGGTKVEIK
For B3, the binding result (in the experiment with CAPRIN-1 protein; in experiment [1]) was “binds” throughout.

B4: Conjugate 241 (antibody, V domains shown)
VH: EVQLVESGGGLVQPGGSLRLSCAASGFSLSSHSLGWVRQAPGKGLEWIGDIRSGGSAYYANWAKGRFTISRDNSKNTLYLQMNSLRAEDTAVYYCTRTNGPSDLTNRLDLWGQGTLVTVSS
VL: EIVLTQSPSSLSASVGDRVTINCQASQSLYNNENLAWFQQKPGKVPKRLIYGASTLASGVSSRFSGSGSGTEFTLTISNLQPEDFATYYCLGEFSCGSADCFAFGGGTKVEIK
Consider B4, for which the binding entry (in the experiment with CAPRIN-1 protein; in experiment [1]) was “binds” in each case.

B5: Conjugate 207 (antibody, V domains shown)
VH: EVQLVESGGGLVQPGGSLRLSCAASGFSLSSHSLGWVRQAPGKGLEWIGDIRSGGSAYYANWAKGRFTISRDNSKNTLYLQMNSLRAEDTAVYFCTRTNGPSDLTNRLDLWGQGTLVTVSS
VL: EIVLTQSPSSLSASVGDRVTINCQASQSLYNNENLAWFQQKPGKVPKRLIYGASTLASGVSSRFSGSGSGTEFTLTISNLQPEDFATYYCLGEFSCGSADCFAFGGGTKVEIK
B5: the binding result (in the experiment with CAPRIN-1 protein; in experiment [1]) was “binds” in each case.

B6: Conjugate 238 (antibody, V domains shown)
VH: EVQLVESGGGLVQPGGSLRLSCAASGFSLSSHSLGWVRQAPGKGLEWIGDIRSGGSAYYANWAKGRFTISRDNSKNTLYLQMNSLRAEDTAVYFCTRTNGPSDLTNRLDLWGQGTLVTVSS
VL: QVLTQSPSSLSASVGDRVTINCQASQSLYNNENLAWFQQKPGKVPKRLIYGASTLASGVSSRFSGSGSGTEFTLTISSLQCEDFAIYYCLGEFSCGSADCFAFGGGTKVEIK
B6: the binding entry (in the experiment with CAPRIN-1 protein; in experiment [1]) was “binds” throughout.

B7: Conjugate 240 (antibody, V domains shown)
VH: EVQLVESGGGLVQPGGSLRLSCAASGFSLSSHSLGWVRQAPGKGLEWIGDIRSGGSAYYANWAKGRFTISRDNSKNTLYLQMNSLRAEDTAVYFCTRTNGPSDLTNRLDLWGQGTLVTVSS
VL: EIVLTQSPSSLSASVGDRVTINCQASQSLYNNENLAWFQQKPGKVPKRLIYGASTLASGVSSRFSGSGSGTEFTLTISNLQPEDFATYYCLGEFSCGSADCFAFGGGTKVEIK
Consider B7, for which the binding result (with CAPRIN-1 protein; in experiment [1]) was “binds” throughout.

B8: Conjugate 208 (antibody, V domains shown)
VH: EVQLVESGGGLVQPGGSLRLSCAASGFSLSSHSLGWVRQAPGKGLEWIGDIRSGGSAYYANWAKGRFTISRDNSKNTLYLQMNSLRAEDTAVYYCTRTNGPSDLTNRLDLWGQGTLVTVSS
VL: EIVLTQSPSSLSASVGDRVTINCQASQSLYNNENLAWFQQKPGKVPKRLIYGASTLASGVSSRFSGSGSGTEFTLTISNLQPEDFATYYCLGEFSCGSADCFAFGGGTKVEIK
With B8, the binding result (with CAPRIN-1 protein; in experiment [1]) was “binds” throughout.

B9: Conjugate 239 (antibody, V domains shown)
VH: EVQLVESGGGLVQPGGSLRLSCAASGFSLSSHSLGWVRQAPGKGLEWIGDIRSGGSAYYANWAKGRFTISRDNSKNTLYLQMNSLRAEDTAVYYCTRTNGPSDLTNRLDLWGQGTLVTVSS
VL: EQVLTQSPSSLSASVGDRVTINCQASQSLYNNENLAWFQQKPGKVPKRLIYGASTLASGVSSRFSGSGSGTEFTLTISNLQPEDFAIYYCLGEFSCGSADCFAFGGGTKVEIK
For B9, the binding entry (with CAPRIN-1 protein; in experiment [1]) was “binds” each time.

B10: Conjugate 209 (antibody, V domains shown)
VH: EVQLVESGGGLVQPGGSLRLSCAASGFSLSSHSLGWVRQAPGKGLEWIGDIRSGGSAYYANWAKGRFTISRDNSKNTLYLQMNSLRAEDTAVYFCTRTNGPSDLTNRLDLWGQGTLVTVSS
VL: EQVLTQSPSSLSASVGDRVTINCQASQSLYNNENLAWFQQKPGKVPKRLIYGASTLASGVSSRFSGSGSGTEFTLTISNLQPEDFAIYYCLGEFSCGSADCFAFGGGTKVEIK
Regarding B10, the binding result (in the experiment with CAPRIN-1 protein; in experiment [1]) was “binds” throughout.

B11: Conjugate 237 (antibody, V domains shown)
VH: EVQLVESGGGLVQPGGSLRLSCAASGFSLSSHSLGWVRQAPGKGLEWIGDIRSGGSAYYANWAKGRFTISRDNSKNTLYLQMNSLRAEDTAVYYCTRTNGPSDLTNRLDLWGQGTLVTVSS
VL: QVLTQSPSSLSASVGDRVTINCQASQSLYNNENLAWFQQKPGKVPKRLIYGASTLASGVSSRFSGSGSGTEFTLTISSLQCEDFAIYYCLGEFSCGSADCFAFGGGTKVEIK
Consider B11, for which the binding result (with CAPRIN-1 protein; in experiment [1]) was “binds” in each case.

B12: Conjugate 231 (antibody, V domains shown)
VH: GPDLVKPGASVKISCKASGYSFTAYYMHWVKQSHGKSLEWIGRVNPNNGGTTYNQKFKGKAILTVDKSSSTAYMELRSLTFEDSAVYYCARRIYYGYFDYWGQGTTVTVSS
VL: AFFAVSLGQRATISCKASQSVDYDGDSYMNWYQQKPGQPPKLLIYVASNLESGVPARFSGSGSGTDFTLNIHPVEEEDAATYYCQQSNEDPYTFGGGTKLEIKQ
For the molecule B12, the binding entry (with CAPRIN-1 protein; in experiment [1]) was “binds” each time.

B13: Conjugate 215 (antibody, V domains shown)
VH: DAELVKPGASVKISCKASGYTFTDHSIHWVQQKPEQGLEWIGYISPGNGNIKYNEKFKGKATLTADKSSSTAYMQLNSLTSEDSAVYFCKRSLGRGGPYYFDYWGQGTTVTVSS
VL: DIVLTQAAPSLPVTPGESVSISCRSSKSLLHSNGNTYLYWFLQRPGQSPQLLIYRMSNLASGVPDRFSGSGSGTAFTLRISRVEAEDVGVYYCMQHREYPVTFGSGPN
As for B13, the binding entry (in the experiment with CAPRIN-1 protein; in experiment [1]) was “binds” each time.

B14: Conjugate 220 (antibody, V domains shown)
VH: EVQLHQFGAELVKPGASVKISCKASGYTFTDYNMDWVKQSHGKSLEWIGDINPNYDSTSYNQKFKGKATLTVDKSSSTAYMELRSLTSEDTAVYYCARSRSYDYEGFAYWGQGTLVTVSA
VL: DIQMTQSPASLSASVGETVTITCRASGNIHNYLAWYQQKQGKSPQLLVYNAKTLADGVPSRFSGSGSGTQYSLKINSLQPEDFGSYYCQHFWSTLTFGAGTKLELKR
Consider B14, for which the binding entry (with CAPRIN-1 protein; in experiment [1]) was “binds” throughout.
